Laboratory results taken from US20220154143A1, “Culture Method for Head and Neck Organoids” (Koninklijke Nederlandse Akademie Van Wetenschappen, priority 2019, published 2022).
At least one structure is not confirmed: it was looked up by name or label, or the drawing left a doubt.

System: HNSCC tumour organoids
Assay: In vitro drug screening, CellTiter-Glo 3D viability
Type: cell-based, human
Settings: T9 (PIK3CA H1047R, BRAF V600E)
Description: FIG. 17. In vitro drug screens in HNSCC-derived organoids, related to FIG. 16. A. Schematic layout of the drug screens as performed in this study. Organoids were disrupted into single cells on day 0, and plated to recover for two days. On day 2, organoids were collected from the BME, washed, filtered, counted and plated in 5% BME in organoid medium in 384 well format (500 organoids per well). Subsequently a gradient of drug concentrations was printed in the wells (different drugs are represented by different colours in the figure), and cells were left exposed to the drugs for five days. As positive control, cells were exposed to 1 μM staurosporin. Solvent volumes were normalized for each plate, so that percentage DMSO or PBS/Tween-20 was identical for each well. […] Readout was performed using Cell Titer Glow. […] Calculated viability for each individual data point was plotted against its replicate value to assess robustness of the assay. […]
Two days prior to start of the drug screen, organoids were passaged and disrupted into single cells using TrypLE. […] Subsequently, organoids were filtered using a […] nylon cell strainer (Falcon), counted and resuspended in 5% BME/growth medium (12.500 organoids/ml) prior plating in 40 μl volume (Multi-drop Combi Reagent Dispenser, Thermo Scientific, cat. no. 5840300) in 384-well plates (Corning, cat. no. 4588). […]

CCCS(=O)(=O)Nc1ccc(F)c(C(=O)c2c[nH]c3ncc(-c4ccc(Cl)cc4)cc23)c1F [vemurafenib]
sensitivity of T9 compared with other tumour organoid lines: increased sensitivity
